Measurements reported in PubChem BioAssay AID1259424 (University of Nebraska Medical Center, 2018).

- Screen: 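Find knockdowns that reproduce the expression shifts seen after KSR1 loss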 (primary screen)
- Cells: human HCT116 colon cancer cells
- Reagents: siRNA pool against human genes, 50 nM
- Measured: 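Log2 levels of six mRNAs (branched-DNA multiplex), adjusted by two reference genes and the non-targeting median, then scored against the average KSR1 knockdown pattern as Pearson r and euclidean distance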
- Reading the numbers: mean correlation with KSR1 profile: higher = expression change more like KSR1 knockdown
The whole screen tested about 14,000 reagents; shown is an unselected part. 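Higher correlation or smaller distance means closer resemblance to KSR1 loss; control wells, including KSR1 knockdowns, recur on many plates.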 Not all columns of the deposit are shown. Not given: the time to read-out.

After knock-down of PASK (GeneID 23178), the screen gave mean correlation with KSR1 profile 0.172.
Depletion of KCNH2 (GeneID 3757) came out at: mean correlation with KSR1 profile 0.111.
Knock-down of SLC4A7 (GeneID 9497) came out at: mean correlation with KSR1 profile 0.503.
Against URM1 (GeneID 81605), the entry reads mean correlation with KSR1 profile 0.435.
Against GAPDHS (GeneID 26330) the deposit lists mean correlation with KSR1 profile -0.212.
With knock-down of PTGDS (GeneID 5730), the screen gave mean correlation with KSR1 profile 0.47.
Depletion of FAN1 (GeneID 22909) came out at: mean correlation with KSR1 profile -0.72.
After knock-down of SAC3D1 (GeneID 29901), the record shows mean correlation with KSR1 profile -0.0998.
After knock-down of ADM (GeneID 133) the results were mean correlation with KSR1 profile -0.165.
Depletion of P3H2 (GeneID 55214) came out at: mean correlation with KSR1 profile -0.459.
With knock-down of REPIN1 (GeneID 29803), the screen gave mean correlation with KSR1 profile 0.396.
RPAP1 (GeneID 26015) scored mean correlation with KSR1 profile -0.479.
PXDN (GeneID 7837) showed mean correlation with KSR1 profile -0.00522.
UBD (GeneID 10537) scored mean correlation with KSR1 profile -0.325.
Against ARHGAP6 (GeneID 395), the entry reads mean correlation with KSR1 profile 0.119.
Depletion of TGFB1I1 (GeneID 7041) resulted in: mean correlation with KSR1 profile 0.27.
Silencing of ING2 (GeneID 3622) resulted in: mean correlation with KSR1 profile 0.0584.
Depletion of AKR1C8 (GeneID 340811) resulted in: mean correlation with KSR1 profile -0.0604.
With knock-down of LEFTY2 (GeneID 7044), the screen gave mean correlation with KSR1 profile -0.0801.
Depletion of NOP58 (GeneID 51602) came out at: mean correlation with KSR1 profile -0.908.
Knock-down of PIK3CA (GeneID 5290) gave: mean correlation with KSR1 profile 0.553.
After knock-down of PEMT (GeneID 10400), the record shows mean correlation with KSR1 profile -0.693.
Knock-down of PCNX4 (GeneID 64430) gave: mean correlation with KSR1 profile -0.531.

As entered above:
Under “mean correlation with KSR1 profile”, FAN1 (GeneID 22909) shows -0.72
KCNH2 (GeneID 3757), mean correlation with KSR1 profile: 0.111
AKR1C8 (GeneID 340811), mean correlation with KSR1 profile → -0.0604
LEFTY2 (GeneID 7044), mean correlation with KSR1 profile: -0.0801
Value of SAC3D1 (GeneID 29901) in “mean correlation with KSR1 profile”: -0.0998
Under “mean correlation with KSR1 profile”, PCNX4 (GeneID 64430) shows -0.531

Next results follow.
With knock-down of MUSK (GeneID 4593) the results were mean correlation with KSR1 profile -0.063.
After knock-down of SALL4 (GeneID 57167), the record shows mean correlation with KSR1 profile 0.148.
Against FLAD1 (GeneID 80308), the entry reads mean correlation with KSR1 profile 0.0727.
Against SRPK2 (GeneID 6733) the deposit lists mean correlation with KSR1 profile -0.0336.
Against ADAM12 (GeneID 8038), the values are mean correlation with KSR1 profile 0.0958.
Knock-down of KBTBD8 (GeneID 84541) gave: mean correlation with KSR1 profile -0.196.
Depletion of DLGAP1 (GeneID 9229) gave: mean correlation with KSR1 profile -0.544.
Knock-down of BKGD (GeneID 28970) came out at: mean correlation with KSR1 profile 0.0426.
Silencing of CXCL13 (GeneID 10563) resulted in: mean correlation with KSR1 profile 0.883.
For ANAPC11 (GeneID 51529) the deposit lists mean correlation with KSR1 profile -0.702.
PPP1R14D (GeneID 54866) gave mean correlation with KSR1 profile 0.854.
TMEM127 (GeneID 55654) gave mean correlation with KSR1 profile -0.105.
NT5C2 (GeneID 22978) showed mean correlation with KSR1 profile 0.175.
